Measured values taken from patent US20110044892A1, “FORMULATION AND METHOD FOR TREATMENT OF TEETH” (priority 2007, published 2011).
Some of these results come from one statement about several compounds together. At least one structure is not confirmed: it was looked up by name or label, or the drawing left a doubt.

Assay: Dentinal tubule plugging by lanthanide salt solutions on etched dentine discs (SEM, backscattered SEM, EDX)
Parameters: species or system human
Conditions: 4% to 5% by weight solution in water, 5 to 10 minutes on disc
Source text: We also assessed other lanthanide compounds, as hereinafter discussed.
For each of the lanthanide salts, caries-free surgically-extracted human molar teeth were cleaned of organic material and, after removal of the crown, sectioned mesio-distally to provide one to two 1-mm dentine discs which were used in the experiment immediately. […] A solution containing a respective one of the above-mentioned lanthanide salts in a concentration of 4% to 5% by weight in the solvent was placed on or in contact with the discs respectively for 5 to 10 minutes before rinsing under flowing tap water. These treated discs were dried completely and then split using pliers, this helping to expose the tubular area for observation of depth of penetration. Specimens were then carbon-coated before examination under SEM (scanning electron microscope). The same procedure was used for each of the other lanthanide compounds hereinafter discussed.
When observed in a backscattered electron beam, dense materials appear as high contrast (bright areas) material relative to the background material (tooth structure). Lanthanides in general have greater density compared to the hydroxyapatite present in the tooth. Thus, in a backscattered electron beam, the lanthanides appear as bright areas due to their high density compared to the background.

| Structure (SMILES) | depth of penetration within the tubules [microns] |
| --- | --- |
| O.O.O.O.O.O.[Cl-].[Cl-].[Cl-].[Gd+3] [gadolinium chloride, gadolinium chloride hexahydrate] | 5 to 12 |
| O.O.O.O.O.O.[Cl][Sm]([Cl])[Cl] [samarium chloride, samarium chloride hexahydrate] | 5 to 12 |
